Experimental data: PMC7713427
These are yes or no findings as the source states them, for the method shown. Binding can be weak; no strength is given. Sequences can lack the tags named with a protein. For some assays here: In cells and extracts the contact can be indirect. Values belong to the molecule of their own block, whether it stands above or below them.

Assays:
[1] = biological target: T1, PSY1 fused with the N-terminus of LUC (PSY1-nLUC) (tomato (Solanum lycopersicum)) (UniProt P08196); experiment: split reporter; split luciferase complementation imaging (LCI): cLUC and nLUC fusions co-expressed in N. benthamiana leaves, 48 h, 1 mM luciferin; empty cLUC or nLUC vectors as negative controls
T1 sequence: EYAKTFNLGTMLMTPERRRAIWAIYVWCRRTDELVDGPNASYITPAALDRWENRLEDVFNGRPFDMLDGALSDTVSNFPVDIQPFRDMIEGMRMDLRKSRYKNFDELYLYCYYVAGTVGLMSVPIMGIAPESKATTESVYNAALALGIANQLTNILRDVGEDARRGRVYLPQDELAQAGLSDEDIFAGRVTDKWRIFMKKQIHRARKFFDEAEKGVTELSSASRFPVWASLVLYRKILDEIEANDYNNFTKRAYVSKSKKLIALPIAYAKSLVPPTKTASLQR

[2] = biological target: Plastid Protein Sensing RING E3 ligase 1 (PPSR1), GAL4 two-hybrid fusion (tomato (Solanum lycopersicum)); experiment: two-hybrid; pairwise, Matchmaker GAL4 Two-Hybrid System 3; AD and BD fusions co-transformed into S. cerevisiae, plated on -LW and -LWHA with X-α-gal; empty vectors as negative controls

Molecule: PPSR1 fused with the C-terminus of LUC (cLUC-PPSR1) (tomato (Solanum lycopersicum)) (enzyme)
binding [1]: binds

B3: PSY1 without transit peptide (PSY1^63–412), GAL4 activation domain fusion (domain or fragment, UniProt P08196 63-412)
chain: SAILATPSGERTMTSEQMVYDVVLRQAALVKRQLRSTNELEVKPDIPIPGNLGLLSEAYDRCGEVCAEYAKTFNLGTMLMTPERRRAIWAIYVWCRRTDELVDGPNASYITPAALDRWENRLEDVFNGRPFDMLDGALSDTVSNFPVDIQPFRDMIEGMRMDLRKSRYKNFDELYLYCYYVAGTVGLMSVPIMGIAPESKATTESVYNAALALGIANQLTNILRDVGEDARRGRVYLPQDELAQAGLSDEDIFAGRVTDKWRIFMKKQIHRARKFFDEAEKGVTELSSASRFPVWASLVLYRKILDEIEANDYNNFTKRAYVSKSKKLIALPIAYAKSLVPPTKTASLQR
binding [2]: binds

Further lines, results first:

binding [2]: binds
B1: PSY1^130–412, GAL4 activation domain fusion (domain or fragment, UniProt P08196 130-412)
chain: T1 sequence

binding [2]: no binding
B2: PSY1^239–412, GAL4 activation domain fusion (domain or fragment, UniProt P08196 239-412)
chain: YCYYVAGTVGLMSVPIMGIAPESKATTESVYNAALALGIANQLTNILRDVGEDARRGRVYLPQDELAQAGLSDEDIFAGRVTDKWRIFMKKQIHRARKFFDEAEKGVTELSSASRFPVWASLVLYRKILDEIEANDYNNFTKRAYVSKSKKLIALPIAYAKSLVPPTKTASLQR

binding [2]: binds
B4: PSY1^130–238, GAL4 activation domain fusion (domain or fragment, UniProt P08196 130-238)
chain: EYAKTFNLGTMLMTPERRRAIWAIYVWCRRTDELVDGPNASYITPAALDRWENRLEDVFNGRPFDMLDGALSDTVSNFPVDIQPFRDMIEGMRMDLRKSRYKNFDELYL
